# Where “and” joins values, the source holds several entries; their conditions need not be identical. Identical values can stand only once. Counter-ions that a name gives are not always drawn. ± gives the standard deviation of the averaged measurements. Some of the results follow. This is a noisy data set.
# Tested on: Salmonella enterica serovar Typhimurium ST313 D23580
# Assay: normalized bacterial growth (OD600 20 h minus 0 h, interquartile-mean normalized) (fraction of plate interquartile mean); higher = more bacterial growth (less inhibition)
# Details: LPM (pH 5.8, low phosphate, low Mg2+), concentration: 10 µM, temperature: 37 °C
row,Compound,normalized bacterial growth
1,C=CCN1CC[C@]23c4c5ccc(O)c4O[C@H]2/C(=N/N=C2\CC[C@@]4(O)[C@H]6Cc7ccc(O)c8c7[C@@]4(CCN6CC=C)[C@H]2O8)CC[C@@]3(O)[C@H]1C5 [Naloxonazine dihydrochloride],0.857
2,CCCC[C@@H](C)[C@@H](OC(=O)C[C@@H](CC(=O)O)C(=O)O)[C@H](C[C@@H](C)CCCCCC[C@@H](O)C[C@H](O)[C@H](C)N)OC(=O)C[C@@H](CC(=O)O)C(=O)O,1.29
3,CN1CCc2cc3c(c4c2C1Cc1ccccc1-4)OCO3 (stereo unspecified),0.724
4,O=C(OC1CCN(CCCl)CC1)C(c1ccccc1)c1ccccc1 [4-Diphenylacetoxy-N-(2-chloroethyl)piperidine hydrochloride],0.885
5,CC(C)C[C@H]1C(=O)N2CCC[C@H]2[C@]2(O)O[C@](NC(=O)[C@@H]3C=C4c5cccc6[nH]c(Br)c(c56)C[C@H]4N(C)C3)(C(C)C)C(=O)N12 [Bromocryptine mesylate],0.736
6,CC(C)C[C@H]1C(=O)N2CCC[C@H]2[C@]2(O)O[C@](NC(=O)[C@@H]3C=C4c5cccc6[nH]c(Br)c(c56)C[C@H]4N(C)C3)(C(C)C)C(=O)N12 [(+)-Bromocriptine methanesulfonate],1.02
7,CC(C)C[C@H]1C(=O)N2CCC[C@H]2[C@]2(O)O[C@](NC(=O)[C@@H]3C=C4c5cccc6[nH]c(Br)c(c56)C[C@H]4N(C)C3)(C(C)C)C(=O)N12,0.872 and 0.654
8,c1ccc(CCCN2CCN(CCOC(c3ccccc3)c3ccccc3)CC2)cc1,0.865
9,CN1[C@@H]2CC[C@H]1C[C@@H](OC(=O)C(CO)c1ccccc1)C2 (stereo partly specified),0.984 and 0.494
10,CN1[C@@H]2CC[C@H]1C[C@@H](OC(=O)C(CO)c1ccccc1)C2 (stereo partly specified) [Atropine sulfate],1.08
11,CN1[C@@H]2CC[C@H]1C[C@@H](OC(=O)C(CO)c1ccccc1)C2 (stereo partly specified) [Atropine sulfate monohydrate],1.08
12,C[C@H]1CC[C@@H]2N(C1)C[C@H]1[C@@H]3C[C@H]4[C@@H](CC(=O)[C@H]5C[C@@H](O)CC[C@@]54C)[C@@H]3CC[C@H]1[C@]2(C)O,1.23
13,CNCC(O)c1ccc(O)cc1 (stereo unspecified) [()-Synephrine],0.959
14,C[C@@H]1CC[C@H]2[C@H](C)[C@H]3CC[C@@]4(O)[C@@H]5CC(=O)[C@H]6CC(=O)CC[C@]6(C)[C@H]5C[C@H]4[C@@H]3CN2C1,0.996
15,C#CCOC(=O)C1=CCCN(C)C1 [Arecaidine propargyl ester hydrobromide],1.29
16,O=C(Cc1ccc(Cl)c(Cl)c1)N1CCCCC1CN1CCCC1 (stereo unspecified),0.715
17,CCC1=C[C@H]2CN3CCc4c([nH]c5ccccc45)[C@](C(=O)OC)(C2)[C@H]13 [Catharanthine],0.812
18,CN[C@@H]1[C@@H](O)[C@@H](O[C@@H]2[C@@H](O)[C@H](O[C@H]3O[C@H]([C@@H](C)O)[C@@H](O)[C@H](O)[C@H]3N)[C@@H](N)C[C@H]2N)OC[C@]1(C)O,0.426
19,O=c1c(O)c(-c2ccc(O)c(O)c2)oc2c(O)c(O)cc(O)c12,0.981
20,CN1CCc2cc3c(cc2C1O)OCO3 (stereo unspecified) [Hydrastinine hydrochloride],0.942
21,CN(CC[C@H](N)CC(=O)N[C@H]1C=C[C@H](n2ccc(N)nc2=O)O[C@@H]1C(=O)O)C(=N)N,1.25
22,CC(C)(N)Cc1ccccc1,1.1
23,CC1(C)C2CC(=O)[C@]3(C)C(CC[C@@]4(C)[C@H](c5ccoc5)OC(=O)[C@H]5O[C@]543)[C@@]2(C)C(=O)C[C@H]1O (stereo partly specified),0.818
24,COc1ccc(C(=O)O)cc1OC,1.18
25,NCC(=O)c1ccccc1,0.768
26,CNC(=O)OCC[N+](C)(C)C [Methylcarbamylcholine chloride],1.26

row,Compound,normalized bacterial growth
1,Nc1ncnc2c1ccn2[C@@H]1O[C@H](CO)[C@@H](O)[C@H]1O,0.747
2,"CNC(=O)Oc1ccc2c(c1)[C@]1(C)CCN(C)[C@@H]1N2C [""Eserine sulfate, physostigmine sulfate""]",0.948
3,CNC(=O)Oc1ccc2c(c1)[C@]1(C)CCN(C)[C@@H]1N2C [(-)-Physostigmine],0.949
4,CNC(=O)Oc1ccc2c(c1)[C@]1(C)CCN(C)[C@@H]1N2C,0.692 and 1.07
5,CN1[C@H]2C[C@H](OC(=O)[C@H](CO)c3ccccc3)C[C@@H]1[C@@H](O)C2,0.908 ± 0.02
6,CN(C)C(=O)Oc1cccc([N+](C)(C)C)c1 [Neostigmine bromide],1.03
7,COc1ccc(C(CN(C)C)C2(O)CCCCC2)cc1 (stereo unspecified),0.923
8,COc1ccc(C(CN(C)C)C2(O)CCCCC2)cc1 (stereo unspecified) [Venlafaxine hydrochloride],1.08
9,CCN(CCCl)Cc1ccccc1Br [DSP-4 hydrochloride],1.3
10,Cc1o[nH]c(=O)c1CC(N)C(=O)O (stereo unspecified) [()-AMPA hydrobromide],1.01
11,C=C1[C@@H](C)[C@H]2[C@H](Cc3ccccc3)NC(=O)[C@]23[C@H](OC(C)=O)/C=C/[C@@](C)(O)C(=O)[C@@H](C)C/C=C/[C@H]3[C@@H]1O,1.03
12,COc1ccccc1N1CCNCC1 [1-(2-Methoxyphenyl)piperazine hydrochloride],1.13
13,CC(=O)c1c(O)c(C)c(O)c(Cc2c(O)c3c(c(C(=O)/C=C/c4ccccc4)c2O)OC(C)(C)C=C3)c1O,0.967
14,"CC(=O)[C@H]1CC[C@H]2[C@@H]3CC[C@H]4C[C@H](O)CC[C@]4(C)[C@H]3C(=O)C[C@]12C [""5alpha-Pregnan-3alpha-ol-11,20-dione""]",1.04
15,CC(C)=CCC[C@]1(C)C=Cc2c(O)c3c(c(CC=C(C)C)c2O1)O[C@]12C(=C[C@@H]4C[C@H]1C(C)(C)O[C@@]2(C/C=C(/C)C(N)=O)C4=O)C3=O,0.971
16,CC1=NN=C(c2ccc(N)cc2)c2cc3c(cc2C1)OCO3,1.06
17,O=C(O)c1cc[c]([Hg][Cl])cc1 [4-Chloromercuribenzoic acid],0.00794
18,CC1CC(Cl)CCC1C(=O)OC(C)(C)C (stereo unspecified),0.752
19,O=C1C=CC(=O)C=C1 [p-Benzoquinone],1.14
20,"COc1ccc2c(c1OC)C(=O)OC2C1c2cc3c(cc2CCN1C)OCO3 (single isomer, unassigned; (+)) [(+)-Hydrastine]",0.93
21,COc1ccc(C(c2ccc(OC)cc2)C(Cl)(Cl)Cl)cc1,0.917
22,COC(=O)NC(=S)Nc1ccccc1NC(=S)NC(=O)OC,1.13
23,O=C(O)[C@@H]1CCN1 [L-azetidine-2-carboxylic acid],1.02
24,CNC(=O)Oc1ccccc1OC(C)C,1.18
25,COc1cc([C@@H]2c3cc4c(cc3[C@H](OC(C)=O)[C@H]3COC(=O)[C@@H]23)OCO4)cc(OC)c1OC,0.937
26,O=C(O)Cc1cnc[nH]1,1.06

row,Compound,normalized bacterial growth
1,O=C(O)Cc1cnc[nH]1 [Imidazole-4-acetic acid hydrochloride],1.08
2,c1ccc2c(c1)sc1ccccc12,1.06
3,O=P1(N(CCCl)CCCl)NCCCO1 (stereo unspecified) [Cyclophosphamide monohydrate],0.886
4,O=P1(N(CCCl)CCCl)NCCCO1 (stereo unspecified),1.04
5,CCCn1c(C)c(C(=O)c2cccc3ccccc23)c2ccccc21,1.01
6,CN1C(=O)CCS(=O)(=O)C1c1ccc(Cl)cc1 (stereo unspecified) [Chlormezanone],1.02
7,CC(=O)OCC1=C(C(=O)[O-])N2C(=O)[C@@H](NC(=O)CCC[C@@H](N)C(=O)[O-])[C@H]2SC1.[Zn+2] [Cephalosporin C zinc salt],1.23
8,CO[C@@H]1C=C2CCN(C)[C@@H]2C2c3cc4c(cc3C(=O)OC21)OCO4 (stereo partly specified) [Ungerine nitrate],0.958
9,COc1cc2c(cc1OC)C13CC[N+]4([O-])CC5=CCOC6CC(=O)N2C1C6C5CC34 (stereo unspecified),1.28
10,CCCCCCC(=O)CCCCCC/C=C/C[C@@H](O)[C@H](O)[C@@](N)(CO)C(=O)O,0.902
11,CCCCCCCCCCCCCCCC[n+]1ccccc1,0.106
12,C=CCC1(C(C)CCC)C(=O)NC(=S)NC1=O (stereo unspecified),1.01
13,c1ccc2c3c([nH]c2c1)CNCC3,0.625
14,"CCCN1CCO[C@@H]2c3cc(O)ccc3OC[C@H]21 [""S(+)-PD 128,907 hydrochloride""]",0.8
15,C[C@@H]1O[C@@H](O[C@H]2C[C@@H](O)[C@]3(CO)[C@H]4[C@H](O)C[C@]5(C)[C@@H]([C@@H]6COC(=O)C6)CC[C@]5(O)[C@@H]4CC[C@]3(O)C2)[C@H](O)[C@H](O)[C@H]1O [Dihydroouabain],1.09
16,c1ccc(/N=N/c2ccccc2)cc1,0.938
17,COC(=O)c1cc2c(cn1)[nH]c1ccccc12 [Methyl beta-carboline-3-carboxylate],0.479
18,O=C1C(Cl)=C(Cl)C(=O)C(Cl)=C1Cl,0.724
19,CN1C2CC(=O)CC1C(O)C2 (stereo unspecified) [6-Hydroxytropinone],1.17
20,C[C@@H]1CC[C@]2(NC1)O[C@H]1C[C@H]3[C@@H]4CC=C5C[C@@H](O)CC[C@]5(C)[C@H]4CC[C@]3(C)[C@H]1[C@@H]2C [Solasodine],1.25
21,C[C@@H]1CC[C@]2(NC1)O[C@H]1C[C@H]3[C@@H]4CC=C5C[C@@H](O)CC[C@]5(C)[C@H]4CC[C@]3(C)[C@H]1[C@@H]2C,0.959 ± 0.017
22,Cc1ncc(C[n+]2csc(CCO)c2C)c(=O)[nH]1,0.964
23,C[C@@H]1O[C@@H](O[C@H]2CC[C@H](O[C@H]3[C@H](O)C[C@H](c4ccc5c(c4O)C(=O)C4=C(C5=O)[C@@]5(O)C(=O)C[C@](C)(O[C@H]6CC[C@H](O[C@H]7C=CC(=O)[C@H](C)O7)[C@H](C)O6)C[C@@]5(O)C=C4)O[C@@H]3C)O[C@H]2C)C=CC1=O,0.442
24,COc1ccc(OC)c(C(O)C(C)N)c1 (stereo unspecified) [Methoxamine hydrochloride],1.2

# Reference: the supplement of paper PMC10398353
